Reference: the supplement of paper PMC11546906
Counter-ions that a name gives are not always drawn. The list shows a part of the results. Repeats in this data set agree poorly, so a single value says little.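 Screen of FDA-approved drugs, each combined with colistin at one-eighth of its MIC, against a multidrug-resistant mcr-1-positive clinical E. coli isolate; growth read as OD600 after 24 h. Bacteria without drug were the growth control and plain broth the blank. A combination counted as active when OD600 fell below 0.2.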

Tested on: Escherichia coli 42 (mcr-1-positive clinical isolate)
Assay: OD600 after 24 h growth with compound plus colistin (absorbance units (OD600)); higher = more bacterial growth (less inhibition)
Conditions: first compound 25 µM; colistin concentration 0.5 ug/mL; incubation time 24 h; 37 °C

| Compound | OD600 |
| --- | --- |
| Cc1c(OCC(F)(F)F)ccnc1C[S+]([O-])c1nc2ccccc2[nH]1 (centres undefined) [Lansoprazole] + CCC(C)CCCC(=O)N[C@@H](CCN)C(=O)N[C@H](C(=O)N[C@@H](CCN)C(=O)N[C@H]1CCNC(=O)[C@H]([C@@H](C)O)NC(=O)[C@H](CCN)NC(=O)[C@H](CCN)NC(=O)[C@H](CC(C)C)NC(=O)[C@@H](CC(C)C)NC(=O)[C@H](CCN)NC1=O)[C@@H](C)O [colistin] | inactive: 1.17 |
| Nc1ccc(S(=O)(=O)Nc2nccs2)cc1 [Sulfathiazole] + CCC(C)CCCC(=O)N[C@@H](CCN)C(=O)N[C@H](C(=O)N[C@@H](CCN)C(=O)N[C@H]1CCNC(=O)[C@H]([C@@H](C)O)NC(=O)[C@H](CCN)NC(=O)[C@H](CCN)NC(=O)[C@H](CC(C)C)NC(=O)[C@@H](CC(C)C)NC(=O)[C@H](CCN)NC1=O)[C@@H](C)O [colistin] | inactive: 1.1 |
| O=C(O)c1ccccc1 [Benzoic acid] + CCC(C)CCCC(=O)N[C@@H](CCN)C(=O)N[C@H](C(=O)N[C@@H](CCN)C(=O)N[C@H]1CCNC(=O)[C@H]([C@@H](C)O)NC(=O)[C@H](CCN)NC(=O)[C@H](CCN)NC(=O)[C@H](CC(C)C)NC(=O)[C@@H](CC(C)C)NC(=O)[C@H](CCN)NC1=O)[C@@H](C)O [colistin] | inactive: 0.957 |
| O=C(O)c1cc(/N=N/c2ccc(S(=O)(=O)Nc3ccccn3)cc2)ccc1O [Sulfasalazine] + CCC(C)CCCC(=O)N[C@@H](CCN)C(=O)N[C@H](C(=O)N[C@@H](CCN)C(=O)N[C@H]1CCNC(=O)[C@H]([C@@H](C)O)NC(=O)[C@H](CCN)NC(=O)[C@H](CCN)NC(=O)[C@H](CC(C)C)NC(=O)[C@@H](CC(C)C)NC(=O)[C@H](CCN)NC1=O)[C@@H](C)O [colistin] | inactive: 1.07 |
| CCCC1O[C@@H]2C[C@H]3[C@@H]4CCC5=CC(=O)C=C[C@]5(C)[C@H]4[C@@H](O)C[C@]3(C)[C@]2(C(=O)CO)O1 (some centres undefined) [Budesonide] + CCC(C)CCCC(=O)N[C@@H](CCN)C(=O)N[C@H](C(=O)N[C@@H](CCN)C(=O)N[C@H]1CCNC(=O)[C@H]([C@@H](C)O)NC(=O)[C@H](CCN)NC(=O)[C@H](CCN)NC(=O)[C@H](CC(C)C)NC(=O)[C@@H](CC(C)C)NC(=O)[C@H](CCN)NC1=O)[C@@H](C)O [colistin] | inactive: 1.04 |
| CCC(=O)O[C@]1(C(=O)SCF)[C@H](C)C[C@H]2[C@@H]3C[C@H](F)C4=CC(=O)C=C[C@]4(C)[C@@]3(F)[C@@H](O)C[C@@]21C [Fluticasone (propionate)] + CCC(C)CCCC(=O)N[C@@H](CCN)C(=O)N[C@H](C(=O)N[C@@H](CCN)C(=O)N[C@H]1CCNC(=O)[C@H]([C@@H](C)O)NC(=O)[C@H](CCN)NC(=O)[C@H](CCN)NC(=O)[C@H](CC(C)C)NC(=O)[C@@H](CC(C)C)NC(=O)[C@H](CCN)NC1=O)[C@@H](C)O [colistin] | inactive: 1.01 |
| Cc1cc(C)cc(OCC2CNC(=O)O2)c1 (centres undefined) [Metaxalone] + CCC(C)CCCC(=O)N[C@@H](CCN)C(=O)N[C@H](C(=O)N[C@@H](CCN)C(=O)N[C@H]1CCNC(=O)[C@H]([C@@H](C)O)NC(=O)[C@H](CCN)NC(=O)[C@H](CCN)NC(=O)[C@H](CC(C)C)NC(=O)[C@@H](CC(C)C)NC(=O)[C@H](CCN)NC1=O)[C@@H](C)O [colistin] | inactive: 0.998 |
| CC(=O)CCCCn1c(=O)c2c(ncn2C)n(C)c1=O [Pentoxifylline] + CCC(C)CCCC(=O)N[C@@H](CCN)C(=O)N[C@H](C(=O)N[C@@H](CCN)C(=O)N[C@H]1CCNC(=O)[C@H]([C@@H](C)O)NC(=O)[C@H](CCN)NC(=O)[C@H](CCN)NC(=O)[C@H](CC(C)C)NC(=O)[C@@H](CC(C)C)NC(=O)[C@H](CCN)NC1=O)[C@@H](C)O [colistin] | inactive: 0.983 |
| CC[C@]1(O)C[C@@H]2CN(CCc3c([nH]c4ccccc34)[C@@](C(=O)OC)(c3cc4c(cc3OC)N(C)[C@H]3[C@@](O)(C(=O)OC)[C@H](OC(C)=O)[C@]5(CC)C=CCN6CC[C@]43[C@@H]65)C2)C1 [Vinblastine sulfate] + CCC(C)CCCC(=O)N[C@@H](CCN)C(=O)N[C@H](C(=O)N[C@@H](CCN)C(=O)N[C@H]1CCNC(=O)[C@H]([C@@H](C)O)NC(=O)[C@H](CCN)NC(=O)[C@H](CCN)NC(=O)[C@H](CC(C)C)NC(=O)[C@@H](CC(C)C)NC(=O)[C@H](CCN)NC1=O)[C@@H](C)O [colistin] | inactive: 1.14 |
| CC(C)(C)NC(=O)[C@H]1CC[C@H]2[C@@H]3CC[C@H]4NC(=O)C=C[C@]4(C)[C@H]3CC[C@]12C [Finasteride] + CCC(C)CCCC(=O)N[C@@H](CCN)C(=O)N[C@H](C(=O)N[C@@H](CCN)C(=O)N[C@H]1CCNC(=O)[C@H]([C@@H](C)O)NC(=O)[C@H](CCN)NC(=O)[C@H](CCN)NC(=O)[C@H](CC(C)C)NC(=O)[C@@H](CC(C)C)NC(=O)[C@H](CCN)NC1=O)[C@@H](C)O [colistin] | inactive: 0.93 |
| COc1cc(Cc2cnc(N)nc2N)cc(OC)c1OC [Trimethoprim] + CCC(C)CCCC(=O)N[C@@H](CCN)C(=O)N[C@H](C(=O)N[C@@H](CCN)C(=O)N[C@H]1CCNC(=O)[C@H]([C@@H](C)O)NC(=O)[C@H](CCN)NC(=O)[C@H](CCN)NC(=O)[C@H](CC(C)C)NC(=O)[C@@H](CC(C)C)NC(=O)[C@H](CCN)NC1=O)[C@@H](C)O [colistin] | inactive: 1.18 |
| NC(N)=Nc1nc(CSCC/C(N)=N/S(N)(=O)=O)cs1 [Famotidine] + CCC(C)CCCC(=O)N[C@@H](CCN)C(=O)N[C@H](C(=O)N[C@@H](CCN)C(=O)N[C@H]1CCNC(=O)[C@H]([C@@H](C)O)NC(=O)[C@H](CCN)NC(=O)[C@H](CCN)NC(=O)[C@H](CC(C)C)NC(=O)[C@@H](CC(C)C)NC(=O)[C@H](CCN)NC1=O)[C@@H](C)O [colistin] | inactive: 0.968 |
| C[C@H](C(=O)O)c1cccc(C(=O)c2ccccc2)c1 [S-(+)-Ketoprofen] + CCC(C)CCCC(=O)N[C@@H](CCN)C(=O)N[C@H](C(=O)N[C@@H](CCN)C(=O)N[C@H]1CCNC(=O)[C@H]([C@@H](C)O)NC(=O)[C@H](CCN)NC(=O)[C@H](CCN)NC(=O)[C@H](CC(C)C)NC(=O)[C@@H](CC(C)C)NC(=O)[C@H](CCN)NC1=O)[C@@H](C)O [colistin] | inactive: 0.909 |
| Cc1cc(C)nc(NS(=O)(=O)c2ccc(N)cc2)n1 [Sulfamethazine sodium] + CCC(C)CCCC(=O)N[C@@H](CCN)C(=O)N[C@H](C(=O)N[C@@H](CCN)C(=O)N[C@H]1CCNC(=O)[C@H]([C@@H](C)O)NC(=O)[C@H](CCN)NC(=O)[C@H](CCN)NC(=O)[C@H](CC(C)C)NC(=O)[C@@H](CC(C)C)NC(=O)[C@H](CCN)NC1=O)[C@@H](C)O [colistin] | inactive: 0.95 |
| OC(CCN1CCCCC1)(c1ccccc1)C1CCCCC1 (racemic) [DL-trihexyphenidyl hydrochloride] + CCC(C)CCCC(=O)N[C@@H](CCN)C(=O)N[C@H](C(=O)N[C@@H](CCN)C(=O)N[C@H]1CCNC(=O)[C@H]([C@@H](C)O)NC(=O)[C@H](CCN)NC(=O)[C@H](CCN)NC(=O)[C@H](CC(C)C)NC(=O)[C@@H](CC(C)C)NC(=O)[C@H](CCN)NC1=O)[C@@H](C)O [colistin] | inactive: 0.936 |
| NC(=O)c1cnccn1 [Pyrazinamide] + CCC(C)CCCC(=O)N[C@@H](CCN)C(=O)N[C@H](C(=O)N[C@@H](CCN)C(=O)N[C@H]1CCNC(=O)[C@H]([C@@H](C)O)NC(=O)[C@H](CCN)NC(=O)[C@H](CCN)NC(=O)[C@H](CC(C)C)NC(=O)[C@@H](CC(C)C)NC(=O)[C@H](CCN)NC1=O)[C@@H](C)O [colistin] | inactive: 0.908 |
| COc1cccc2c1C(=O)c1c(O)c3c(c(O)c1C2=O)C[C@@](O)(C(=O)CO)C[C@@H]3O[C@H]1C[C@H](N)[C@H](O)[C@H](C)O1 [Doxorubicin hydrochloride] + CCC(C)CCCC(=O)N[C@@H](CCN)C(=O)N[C@H](C(=O)N[C@@H](CCN)C(=O)N[C@H]1CCNC(=O)[C@H]([C@@H](C)O)NC(=O)[C@H](CCN)NC(=O)[C@H](CCN)NC(=O)[C@H](CC(C)C)NC(=O)[C@@H](CC(C)C)NC(=O)[C@H](CCN)NC1=O)[C@@H](C)O [colistin] | inactive: 0.981 |
| CC(C)(CO)C(O)C(=O)NCCCO (racemic) [DL-Panthenol] + CCC(C)CCCC(=O)N[C@@H](CCN)C(=O)N[C@H](C(=O)N[C@@H](CCN)C(=O)N[C@H]1CCNC(=O)[C@H]([C@@H](C)O)NC(=O)[C@H](CCN)NC(=O)[C@H](CCN)NC(=O)[C@H](CC(C)C)NC(=O)[C@@H](CC(C)C)NC(=O)[C@H](CCN)NC1=O)[C@@H](C)O [colistin] | inactive: 0.929 |
| C=C1CCN([C@H](C)[C@](O)(Cn2cncn2)c2ccc(F)cc2F)CC1 [Efinaconazole] + CCC(C)CCCC(=O)N[C@@H](CCN)C(=O)N[C@H](C(=O)N[C@@H](CCN)C(=O)N[C@H]1CCNC(=O)[C@H]([C@@H](C)O)NC(=O)[C@H](CCN)NC(=O)[C@H](CCN)NC(=O)[C@H](CC(C)C)NC(=O)[C@@H](CC(C)C)NC(=O)[C@H](CCN)NC1=O)[C@@H](C)O [colistin] | inactive: 0.764 |

Reprinted at random: two records from the list, in no set order.

| Compound | OD600 |
| --- | --- |
| CC(C)(C)NC(=O)[C@H]1CC[C@H]2[C@@H]3CC[C@H]4NC(=O)C=C[C@]4(C)[C@H]3CC[C@]12C [Finasteride] + CCC(C)CCCC(=O)N[C@@H](CCN)C(=O)N[C@H](C(=O)N[C@@H](CCN)C(=O)N[C@H]1CCNC(=O)[C@H]([C@@H](C)O)NC(=O)[C@H](CCN)NC(=O)[C@H](CCN)NC(=O)[C@H](CC(C)C)NC(=O)[C@@H](CC(C)C)NC(=O)[C@H](CCN)NC1=O)[C@@H](C)O [colistin] | inactive: 0.93 |
| Cc1c(OCC(F)(F)F)ccnc1C[S+]([O-])c1nc2ccccc2[nH]1 (centres undefined) [Lansoprazole] + CCC(C)CCCC(=O)N[C@@H](CCN)C(=O)N[C@H](C(=O)N[C@@H](CCN)C(=O)N[C@H]1CCNC(=O)[C@H]([C@@H](C)O)NC(=O)[C@H](CCN)NC(=O)[C@H](CCN)NC(=O)[C@H](CC(C)C)NC(=O)[C@@H](CC(C)C)NC(=O)[C@H](CCN)NC1=O)[C@@H](C)O [colistin] | inactive: 1.17 |
